Source: PubChem BioAssay AID1347423 (Functional Genomics Laboratory (NCATS/FGL), 2020)
The campaign covered roughly 52,000 sequences. About 210 (0.4%) were called active.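 Rule for the calls: active = gene whose silencing raises cell survival under the drug, median off-target-corrected z-score across its silencing RNAs 2 or more; inactive = the rest.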 The list shows a part of the results.

Test: Resistance to Poly (ADP-Ribose) Polymerase inhibitor: Gene Identification via Genome-wide siRNA Screen
Details: mouse BRCA2 R2336H ES cells, olaparib, CellTiter-Glo viability; stronger effect = higher value
Method in brief: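 Genome-wide siRNA screen (3 siRNAs/gene, 20 nM) in mouse ES cells carrying hypomorphic BRCA2 R2336H; olaparib 500 nM added 48 h post-transfection, CellTiter-Glo viability 72 h later. Normalized to plate-median negative control; MAD z-scores, gene median, seed-adjusted.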

Sequence	z-score
GGAUUUAACUCCAUUUCAATT against Tlr3	inactive: 2.42
GCUUAGCCUCGGAAUGUGGTT against 1810073E21Rik	inactive: -0.22
GGCCAAGAUUAGAUUGCUUTT against Senp2	inactive: -1.26
CCAAGUCCUUCAUCGAAUATT against Kif1a	inactive: 0.139
GGACUUCAUCUCCAAACGCTT against Snag1	inactive: -0.428
GGAUCACCCAUACAGGAACTT against Pla2g2f	inactive: 0.764
GGACAUUGAGGAUUAUGUCTT against Thrap4	inactive: 1.03
CCAUCAUGAACAGCCAGCUTT against Olfr463	inactive: -1.63
GGAAGACAAUGGUGUGAAATT against Pgm3	inactive: 0.499
GGCUAUUGUUGGUAGAACUTT against Dek	inactive: 0.532
GCUUGGAUAUACAGAUUAATT against A030001H23Rik	inactive: 0.631
GCUAAUGGUCCAUUGAUAUTT against Btn2	inactive: -0.513
CCAUUAUAGAUCGUCAAUATT against Nalp9c	inactive: -0.316
GGAGACGACUCCAUUCACATT against Thbs3	inactive: -0.714
GGGAUCUUACAUGCCACCATT against Olfr1231	inactive: 0.567
GGACCUUGAGAAAGUAGUCTT against Ms4a10	inactive: -0.411
GGGAGCAGCGAGAUGAAUUTT against Tmem16b	inactive: -0.779
GGACAAAAGAUGAAUGCUCTT against Msln	inactive: 1.33
GGACUUUGUCAACCAUGUCTT against Fbxl5	inactive: 0.453
GGUGAUUUGAACUGUGAAATT against 1810020E01Rik	inactive: -2.15
CCCUAACAUCUCUUUGUUGTT against Slc15a3	inactive: 0.559
GCCGAUCCAUUUUUGGCUCTT against B930074I24	inactive: 1.31

Sequence	z-score
GGUUGAAACGAGUUUUGAATT against Zbtb5	inactive: -1.01
GGUGGUGCAGGGAUUACAATT against 2510004L01Rik	inactive: 0.428
GGUCAUUCAGUGGUGCACCTT against Skp1a	inactive: -0.0512
GCAAAACUGUGUCAGUAUCTT against Slco5a1	inactive: -0.732
GGCCCUGGUUUCAUUAGGATT against Gab3	inactive: 0.309
GGGUCUUGCCUACUUGCAUTT against Map4k5	inactive: 0.574
GCCAAUGUCGGAAAAAAUUTT against 4932411G14Rik	inactive: -1.13
CCUGGUACAAGAGGAGUUUTT against Myg1	inactive: 0.392
GGACAACUUCUUCAUUGAGTT against Slc8a2	inactive: -0.576
GGGUUUGGAGUUUGAUUUATT against Hrasls3	inactive: 0.583
AACGUAAUUAGCGUGAAUUTT against Cyp2j11	inactive: 0.219
CCUAAUUUGAUCCUUCGAATT against 4930488P06Rik	inactive: -0.173
GGUGCAGUUGAAAGAACUCTT against Hoxa13	inactive: 0.607
GGAGCUUUCUCAAGAUUCATT against Arid1a	inactive: 0.173
GGCCGAGACUUCUCUUUUATT against Grin2c	inactive: -0.771
GGAAUUUCUGAAUGACUUATT against 2310031L18Rik	inactive: 0.858
GCUAAAAAUGGUUGUGUGATT against E130112H22Rik	inactive: 0.272
GGAUGUAACAUUUCUUCAATT against 4932432N11Rik	inactive: 1.91
GGGAAGAACUUCAAGCUUGTT against Ptk2b	inactive: -0.698
GGAAUAAGGAAGUUAUUGGTT against Olfr706	inactive: 0.826
UGGCCUUUGCCCUACAUUUTT against BC061259	inactive: 0.0438
GGGAGCUGUUCUAUGAAGATT against Fhl3	inactive: -0.171

Sequence	z-score
GGAUGGAGGAAGACUCGAUTT against Etv6	inactive: -1.77
GGACCUCGAUACAAUGGUCTT against Gkn1	inactive: -0.193
GGACAUGUCUUCCCUGAAUTT against Hgs	inactive: -0.0696
CCGACUACCUUUCUUCACCTT against Cdh23	inactive: 0.221
GGCUACAGAAGCUACUAAATT against Akr1c6	inactive: 0.241
CCUUGCUACGGAUUGGAGATT against 9230105I15Rik	inactive: -0.989
GCGGCCGAAAUUUAUGAGGTT against 2610101N10Rik	inactive: 1.01
CCAUGCGUAUCCGUAUGACTT against 1500034E06Rik	inactive: 0.674
GAGGAGCAAAUCCCGGUGATT against Prm3	inactive: -1.17
GGCAGGUUCAUUGAGGUUCTT against 1110031I02Rik	inactive: -0.0803
GGCUUUUGAGAUUGCUAAATT against Mfap3l	inactive: 0.183
CCGGAUCCAGCCAAUCAAATT against Fkbpl	inactive: 0.642
CGCACAAAGGAUUUUUGUATT against Epha7	inactive: -0.182
GGGACUGUAAUACCAUGAUTT against Rnase10	inactive: 0.241
GGCACUUCGUAUAAAGACCTT against Hadhb	inactive: 0.527
CCAAGUAGGUCCUAGUCUATT against 1700009P17Rik	inactive: -0.964
GGAUGAAGUGGCCAUAAAUTT against Olfr791	inactive: 0.794
GGGAAGUGACCAUCAAGAATT against Slc8a3	inactive: 1.46
CCGACUGAAUCAUAUAUCUTT against Rpp25	inactive: 0.155
GCGAACAAAAUGAGGACUUTT against Dusp23	inactive: -1.56
CCUUUCCGACGAUAGGACCTT against Piga	inactive: 0.192
GGAAGUCCUUAGGUUUGGCTT against Edg8	inactive: -0.101

Copied from the list:
Value for GGGAAGAACUUCAAGCUUGTT against Ptk2b under z-score: inactive: -0.698
Value for GGACUUCAUCUCCAAACGCTT against Snag1 under z-score: inactive: -0.428
Value for GGUGGUGCAGGGAUUACAATT against 2510004L01Rik under z-score: inactive: 0.428
